Assay results published in article doi:10.64898/2025.12.21.693523.
These are yes or no findings as the source states them, for the method shown. In cells and extracts the contact can be indirect. These calls come from enrichment with a bait or labelling near it, and not all partners need be listed.

Protein sequences, listed by entry. Tags and fused reporters are not part of them.
UniProt Q8IXI2, whole entry: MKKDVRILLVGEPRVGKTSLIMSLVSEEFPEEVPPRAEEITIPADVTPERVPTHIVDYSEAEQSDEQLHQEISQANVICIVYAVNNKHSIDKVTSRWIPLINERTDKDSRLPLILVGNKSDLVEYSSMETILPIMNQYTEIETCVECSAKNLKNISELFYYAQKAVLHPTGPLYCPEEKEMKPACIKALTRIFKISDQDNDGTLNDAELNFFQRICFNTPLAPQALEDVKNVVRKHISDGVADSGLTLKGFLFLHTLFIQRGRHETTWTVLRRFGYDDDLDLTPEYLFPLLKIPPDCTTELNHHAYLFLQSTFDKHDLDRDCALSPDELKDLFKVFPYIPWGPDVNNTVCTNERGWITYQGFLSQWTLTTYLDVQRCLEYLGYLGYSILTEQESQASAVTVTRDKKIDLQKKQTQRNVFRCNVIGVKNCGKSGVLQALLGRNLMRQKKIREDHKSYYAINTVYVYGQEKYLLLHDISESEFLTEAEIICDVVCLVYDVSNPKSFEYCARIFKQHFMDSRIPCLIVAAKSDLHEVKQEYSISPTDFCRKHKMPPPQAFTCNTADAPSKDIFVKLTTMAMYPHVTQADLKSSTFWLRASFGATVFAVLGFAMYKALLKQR

Biological target: LOV-Tb-Miro1-WT, Q8IXI2
Experiment: proximity labelling
Details: remark: other sources report otherwise

B1: MTFR2, Q6P444 1-385 (protein)
chain: MSLILNILREMLEYFGVPVEQVLLIWENKDYGSTRSIVRIIGKMLPLEPCRRPNFELIPLLNSVDSDNCGSMVPSFADILYVANDEEASYLRFRNSIWKNEEEKVEIFHPLRLVRDPLSPAVRQKETVKNDLPVNEAAIRKIAALENELTFLRSQIAAIVEMQELKNSTNSSSFGLSDERISLGQLSSSRAAHLSVDPDQLPGSVLSPPPPPPLPPQFSSLQPPCFPPVQPGSNNICDSDNPATEMSKQNPAANKTNYSHHSKSQRNKDIPNMLDVLKDMNKVKLRAIERSPGGRPIHKRKRQNSHWDPVSLISHALKQKFAFQEDDSFEKENRSWESSPFSSPETSRFGHHISQSEGQRTKEEMVNTKAVDQGISNTSLLNSRI
  binding: binds
